Laboratory results: US10011649B2 (priority 2013, dated 2018)
Like-named read-outs stand apart in the source and are kept apart here. At least one structure is not confirmed: it was looked up by name or label, or the drawing left a doubt. Numbered stars: 1 amine (or outer) side, 2 acyl side, 3 side chain; on linkers, the order of the positions; unused ones are H or OH. Bridge positions count the residues as written; N and C are the ends. Square brackets hold non-standard residues; d marks the D form. Ends that are not written are not given here. I, II: the chains in the order shown. * marks the point of attachment. ξ: configuration not given here. X2 = O=C(O)CCC(NC(=O)CCN1C(=O)CC([*:2])C1=O)C(=O)[*:1]; X3 = O=C1CC([*:2])C(=O)N1CCC(=O)[*:1]; X1 = O=C1NC2CSC(CCCCC(=O)*)C2N1; ξE = NC(CCC(=O)O)C(=O)O; AEEA = NCCOCCOCC(=O)O; ξK = NCCCCC(N)C(=O)O; ξS = NC(CO)C(=O)O

Protein sequences, listed by entry. Tags and fused reporters are not part of them. Lines headed by an entry give the natural chain unless they say otherwise; changes in a name come on top.
UniProt P03466: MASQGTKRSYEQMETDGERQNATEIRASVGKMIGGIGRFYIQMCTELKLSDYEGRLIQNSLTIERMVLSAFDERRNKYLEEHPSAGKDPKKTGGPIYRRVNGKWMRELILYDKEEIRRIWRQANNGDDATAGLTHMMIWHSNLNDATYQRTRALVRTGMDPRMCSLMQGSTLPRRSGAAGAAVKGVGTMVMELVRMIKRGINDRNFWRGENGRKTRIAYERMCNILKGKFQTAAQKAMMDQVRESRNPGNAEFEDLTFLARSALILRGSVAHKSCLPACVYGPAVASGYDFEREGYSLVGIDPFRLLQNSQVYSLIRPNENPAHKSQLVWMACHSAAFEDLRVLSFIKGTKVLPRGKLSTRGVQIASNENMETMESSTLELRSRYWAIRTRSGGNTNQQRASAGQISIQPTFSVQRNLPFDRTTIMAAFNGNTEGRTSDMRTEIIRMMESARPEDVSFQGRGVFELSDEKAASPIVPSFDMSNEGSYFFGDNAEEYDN

Assays:
[1] = target: T1, purified NP (Influenza A virus, UniProt P03466); assay type: binding; conditions: read-out: KD for NP by pull-down
[2] = target: T1, purified NP; assay type: binding; conditions: read-out: KD for NP by SPR

I: [ξE][ξK]G[ξS]G[ξS]G[AEEA][ξK](X1)IDKMPFETHRLGPGRFDGSG-NH2 / II: CSGDMYEYNPFQGNHIYNKK-NH2 / III: CSGDMYEYNPFQGNHIYNKK-NH2 (linker I:2-II:1 via X2; linker I:N-III:1 via X3) [P5-P5-Sc2]
Kd [1]: 62 ± 26 nM
Kd [2]: ~30 nM
